Experimental data published in publication PMC8324795.
No constants are given. Whether binding was seen depends on the method and setting. In cells and extracts the contact can be indirect. A yes stands for co-enrichment or nearness to the bait. Other partners may have been found. Where a sequence is shown, tags or fusion partners need not be part of it.

By UniProt entry, the sequences of proteins in these tests, tags left out.
UniProt O75396: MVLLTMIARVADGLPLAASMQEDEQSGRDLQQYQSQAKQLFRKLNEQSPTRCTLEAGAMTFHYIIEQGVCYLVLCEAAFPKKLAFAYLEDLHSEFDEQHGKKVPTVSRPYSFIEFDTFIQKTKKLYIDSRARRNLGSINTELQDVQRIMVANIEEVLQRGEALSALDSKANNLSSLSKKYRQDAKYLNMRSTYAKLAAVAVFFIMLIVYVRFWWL
UniProt P61081: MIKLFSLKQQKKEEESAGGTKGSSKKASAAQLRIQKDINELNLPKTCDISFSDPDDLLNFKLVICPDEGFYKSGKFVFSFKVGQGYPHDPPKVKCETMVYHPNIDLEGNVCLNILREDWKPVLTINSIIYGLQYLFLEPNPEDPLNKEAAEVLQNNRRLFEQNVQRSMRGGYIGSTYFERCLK

Biological target: T1, FLAG-tagged FKBP51 (FK506-binding protein 51), expressed in HEK293 cells (UniProt Q13451)
T1 sequence: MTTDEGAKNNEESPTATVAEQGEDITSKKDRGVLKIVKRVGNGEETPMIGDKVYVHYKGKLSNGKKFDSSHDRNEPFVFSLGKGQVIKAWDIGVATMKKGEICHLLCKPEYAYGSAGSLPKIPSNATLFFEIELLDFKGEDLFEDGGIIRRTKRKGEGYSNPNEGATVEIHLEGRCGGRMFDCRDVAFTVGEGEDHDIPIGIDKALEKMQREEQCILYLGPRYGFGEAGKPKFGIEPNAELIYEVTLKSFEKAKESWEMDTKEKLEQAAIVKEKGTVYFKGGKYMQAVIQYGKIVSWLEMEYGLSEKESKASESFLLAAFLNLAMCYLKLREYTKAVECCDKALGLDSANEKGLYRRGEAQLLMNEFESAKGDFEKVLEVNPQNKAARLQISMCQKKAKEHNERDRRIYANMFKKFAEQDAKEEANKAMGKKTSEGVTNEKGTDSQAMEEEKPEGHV
Experiment: affinity purification with mass spectrometry; HEK cells transfected with FLAG-tagged FKBP51 or FLAG control vector; FLAG IP 48 h after transfection, SDS gel, in-gel trypsin digestion, LC-MS/MS; proteins found in all four replicates counted as interactors

Substance | binding
SEC22B in HEK293 cells (hit of the FKBP51 interactome) (from UniProt O75396 1-215) | binds
UBC12 in HEK293 cells (hit of the FKBP51 interactome) (from UniProt P61081 1-183) | binds
